Measurements published in PMC5484620.
No constants are given. Whether binding was seen depends on the method and setting. In cells and extracts the contact can be indirect. Some binding calls cover weakened binding; strength is not graded here.

Amino acid sequences for entries named in this document (tags omitted).
UniProt Q04637: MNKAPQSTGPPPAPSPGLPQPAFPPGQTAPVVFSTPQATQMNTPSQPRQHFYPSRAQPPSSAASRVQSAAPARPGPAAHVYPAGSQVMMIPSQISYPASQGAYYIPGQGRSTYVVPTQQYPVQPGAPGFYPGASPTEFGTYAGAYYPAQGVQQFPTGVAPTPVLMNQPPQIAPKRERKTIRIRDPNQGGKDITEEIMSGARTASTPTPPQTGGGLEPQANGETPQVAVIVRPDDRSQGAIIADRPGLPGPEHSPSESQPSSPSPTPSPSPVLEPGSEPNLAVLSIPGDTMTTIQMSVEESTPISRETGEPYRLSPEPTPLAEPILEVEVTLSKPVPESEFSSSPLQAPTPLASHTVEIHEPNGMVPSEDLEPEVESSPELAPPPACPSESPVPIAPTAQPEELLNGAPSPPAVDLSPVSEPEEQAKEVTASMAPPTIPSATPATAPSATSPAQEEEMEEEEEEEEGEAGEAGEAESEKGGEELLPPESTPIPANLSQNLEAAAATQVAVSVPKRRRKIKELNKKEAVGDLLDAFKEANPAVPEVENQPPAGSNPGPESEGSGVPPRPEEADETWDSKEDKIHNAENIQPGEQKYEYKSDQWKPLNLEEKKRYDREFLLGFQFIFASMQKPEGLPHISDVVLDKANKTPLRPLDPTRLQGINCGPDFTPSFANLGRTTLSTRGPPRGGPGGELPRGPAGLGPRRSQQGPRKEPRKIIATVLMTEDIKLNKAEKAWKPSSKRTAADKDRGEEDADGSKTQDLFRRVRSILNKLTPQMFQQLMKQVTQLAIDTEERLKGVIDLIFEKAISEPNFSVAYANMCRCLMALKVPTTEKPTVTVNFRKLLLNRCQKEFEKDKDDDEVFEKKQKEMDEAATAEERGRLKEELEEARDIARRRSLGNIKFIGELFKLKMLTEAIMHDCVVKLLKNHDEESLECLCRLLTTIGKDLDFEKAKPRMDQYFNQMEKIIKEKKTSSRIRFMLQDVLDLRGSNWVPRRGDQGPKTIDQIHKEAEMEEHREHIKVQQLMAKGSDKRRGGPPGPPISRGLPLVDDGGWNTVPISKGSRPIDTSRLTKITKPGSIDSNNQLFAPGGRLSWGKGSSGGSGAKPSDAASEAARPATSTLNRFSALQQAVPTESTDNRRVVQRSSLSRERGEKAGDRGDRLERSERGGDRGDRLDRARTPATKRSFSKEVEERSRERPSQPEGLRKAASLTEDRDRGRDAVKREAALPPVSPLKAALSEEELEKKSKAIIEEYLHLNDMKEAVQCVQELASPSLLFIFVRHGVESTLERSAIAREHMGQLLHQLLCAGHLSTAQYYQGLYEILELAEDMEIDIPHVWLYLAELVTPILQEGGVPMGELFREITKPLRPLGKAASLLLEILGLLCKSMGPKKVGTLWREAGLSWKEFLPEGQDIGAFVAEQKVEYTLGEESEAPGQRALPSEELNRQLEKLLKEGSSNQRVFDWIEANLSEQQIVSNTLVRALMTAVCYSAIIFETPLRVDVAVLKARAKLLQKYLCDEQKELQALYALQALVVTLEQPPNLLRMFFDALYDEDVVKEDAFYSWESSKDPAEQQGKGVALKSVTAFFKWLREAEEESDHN
UniProt P55884: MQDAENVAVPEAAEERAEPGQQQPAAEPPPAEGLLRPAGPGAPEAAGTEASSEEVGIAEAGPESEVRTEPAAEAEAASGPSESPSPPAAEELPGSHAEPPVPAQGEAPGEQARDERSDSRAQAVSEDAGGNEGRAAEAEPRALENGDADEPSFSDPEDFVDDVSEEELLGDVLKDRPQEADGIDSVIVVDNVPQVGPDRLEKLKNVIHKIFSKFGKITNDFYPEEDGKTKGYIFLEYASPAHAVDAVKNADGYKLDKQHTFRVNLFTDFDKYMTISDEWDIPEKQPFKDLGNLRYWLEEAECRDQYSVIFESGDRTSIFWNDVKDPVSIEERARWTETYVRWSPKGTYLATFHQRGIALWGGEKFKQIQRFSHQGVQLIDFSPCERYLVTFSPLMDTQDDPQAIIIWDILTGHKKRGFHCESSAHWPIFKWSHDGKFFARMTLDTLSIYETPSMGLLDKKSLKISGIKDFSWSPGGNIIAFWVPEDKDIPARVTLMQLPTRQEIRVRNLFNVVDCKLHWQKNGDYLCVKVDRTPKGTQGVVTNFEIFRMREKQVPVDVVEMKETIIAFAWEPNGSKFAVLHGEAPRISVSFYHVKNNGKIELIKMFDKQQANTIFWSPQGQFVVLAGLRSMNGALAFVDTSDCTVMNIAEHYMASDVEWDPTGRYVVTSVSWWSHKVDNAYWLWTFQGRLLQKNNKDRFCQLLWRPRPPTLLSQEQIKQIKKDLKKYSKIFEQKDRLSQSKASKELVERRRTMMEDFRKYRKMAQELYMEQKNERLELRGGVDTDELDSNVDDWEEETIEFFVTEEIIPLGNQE

Molecular target: eIF4G1, endogenous (human (endogenous in HEK293T)) (UniProt Q04637)
Test: co-IP; endogenous eIF4G1 precipitated from lysates with or without RNase A

- binding: binds
Substance: eIF3B, endogenous (from UniProt P55884 1-814)
